Results reported in article PMC10762260.
Results are given in words; binding and its absence hold for the method and conditions named. Binding seen in cells or lysates may run through a third protein.

Chains of the proteins cited; added tags and fusions are not shown. Residues count along the entry.
UniProt O15118, residues 23-1278: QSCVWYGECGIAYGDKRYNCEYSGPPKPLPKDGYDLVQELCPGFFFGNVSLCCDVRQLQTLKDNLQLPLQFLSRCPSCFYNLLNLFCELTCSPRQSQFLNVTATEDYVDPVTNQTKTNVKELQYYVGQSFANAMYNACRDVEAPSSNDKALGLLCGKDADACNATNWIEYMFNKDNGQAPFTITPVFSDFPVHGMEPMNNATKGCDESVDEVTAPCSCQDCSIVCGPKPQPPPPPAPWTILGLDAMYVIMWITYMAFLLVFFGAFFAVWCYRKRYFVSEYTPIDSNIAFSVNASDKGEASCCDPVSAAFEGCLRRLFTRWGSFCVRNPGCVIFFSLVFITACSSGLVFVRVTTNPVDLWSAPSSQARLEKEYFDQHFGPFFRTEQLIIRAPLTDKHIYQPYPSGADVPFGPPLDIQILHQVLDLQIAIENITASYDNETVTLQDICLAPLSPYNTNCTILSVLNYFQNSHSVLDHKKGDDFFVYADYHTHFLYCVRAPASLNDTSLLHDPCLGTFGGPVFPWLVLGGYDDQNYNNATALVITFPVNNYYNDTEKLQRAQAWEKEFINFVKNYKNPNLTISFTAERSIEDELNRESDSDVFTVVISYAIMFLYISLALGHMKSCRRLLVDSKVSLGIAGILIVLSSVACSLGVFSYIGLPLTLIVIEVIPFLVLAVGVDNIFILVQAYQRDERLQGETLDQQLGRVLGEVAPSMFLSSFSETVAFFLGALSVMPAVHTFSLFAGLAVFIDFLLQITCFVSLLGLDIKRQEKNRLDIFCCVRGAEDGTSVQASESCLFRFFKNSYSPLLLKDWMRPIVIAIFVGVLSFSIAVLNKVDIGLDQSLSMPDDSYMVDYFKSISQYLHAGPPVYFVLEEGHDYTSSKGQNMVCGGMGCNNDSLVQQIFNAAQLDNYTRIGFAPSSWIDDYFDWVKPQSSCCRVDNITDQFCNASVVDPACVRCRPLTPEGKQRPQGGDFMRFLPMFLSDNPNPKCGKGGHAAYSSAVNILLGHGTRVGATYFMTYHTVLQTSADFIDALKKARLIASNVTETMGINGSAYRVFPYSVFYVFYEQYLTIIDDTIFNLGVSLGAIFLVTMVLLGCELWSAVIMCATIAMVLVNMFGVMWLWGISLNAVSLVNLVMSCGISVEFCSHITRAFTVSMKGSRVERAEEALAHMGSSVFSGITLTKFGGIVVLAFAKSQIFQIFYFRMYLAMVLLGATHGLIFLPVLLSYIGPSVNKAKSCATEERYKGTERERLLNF
UniProt P03454, residues 18-565: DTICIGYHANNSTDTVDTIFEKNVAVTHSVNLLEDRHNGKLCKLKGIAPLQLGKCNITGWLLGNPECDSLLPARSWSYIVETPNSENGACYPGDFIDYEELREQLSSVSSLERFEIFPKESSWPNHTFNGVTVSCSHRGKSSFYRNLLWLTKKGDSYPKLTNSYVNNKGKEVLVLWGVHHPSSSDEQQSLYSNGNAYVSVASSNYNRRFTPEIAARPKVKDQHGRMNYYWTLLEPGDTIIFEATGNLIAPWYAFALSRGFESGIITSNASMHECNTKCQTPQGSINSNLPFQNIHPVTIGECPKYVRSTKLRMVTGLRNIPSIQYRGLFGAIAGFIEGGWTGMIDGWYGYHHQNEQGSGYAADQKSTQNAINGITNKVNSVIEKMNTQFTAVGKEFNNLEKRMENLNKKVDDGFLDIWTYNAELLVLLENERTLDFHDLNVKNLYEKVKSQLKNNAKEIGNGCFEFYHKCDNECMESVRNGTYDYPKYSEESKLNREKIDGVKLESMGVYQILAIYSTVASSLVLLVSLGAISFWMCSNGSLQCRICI
UniProt P03522, residues 17-511: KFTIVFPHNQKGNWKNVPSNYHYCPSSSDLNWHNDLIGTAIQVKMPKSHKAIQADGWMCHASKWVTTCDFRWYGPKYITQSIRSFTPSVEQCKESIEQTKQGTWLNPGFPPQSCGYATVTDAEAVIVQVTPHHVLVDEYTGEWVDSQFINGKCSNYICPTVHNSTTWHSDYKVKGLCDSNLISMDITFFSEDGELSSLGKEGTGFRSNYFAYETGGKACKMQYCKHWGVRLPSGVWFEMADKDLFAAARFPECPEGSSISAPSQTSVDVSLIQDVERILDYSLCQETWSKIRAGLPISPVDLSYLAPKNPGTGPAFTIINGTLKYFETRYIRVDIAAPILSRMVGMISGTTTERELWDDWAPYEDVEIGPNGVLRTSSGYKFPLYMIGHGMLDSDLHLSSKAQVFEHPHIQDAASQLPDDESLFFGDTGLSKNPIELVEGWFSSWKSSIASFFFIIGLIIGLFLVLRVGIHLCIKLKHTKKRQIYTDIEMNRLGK

Molecular target: Niemann-Pick C1 (NPC1), full-length, with 3xFLAG tag (pcDNA3.1-NPC1-3FLAG) (human) (UniProt O15118)
Assay: co-IP

influenza virus haemagglutinin (HA) from the A/WSN/1933 (H1N1) strain (from UniProt P03454)
binding: no binding

vesicular stomatitis virus glycoprotein (VSV-G) (from UniProt P03522 17-511)
binding: no binding
